Publication doi:10.1101/723247
These are yes or no findings as the source states them, for the method shown. In cells and extracts the contact can be indirect. Some binding calls cover weakened binding; strength is not graded here.

By UniProt entry, the sequences of proteins in these tests, tags left out.
UniProt P23678: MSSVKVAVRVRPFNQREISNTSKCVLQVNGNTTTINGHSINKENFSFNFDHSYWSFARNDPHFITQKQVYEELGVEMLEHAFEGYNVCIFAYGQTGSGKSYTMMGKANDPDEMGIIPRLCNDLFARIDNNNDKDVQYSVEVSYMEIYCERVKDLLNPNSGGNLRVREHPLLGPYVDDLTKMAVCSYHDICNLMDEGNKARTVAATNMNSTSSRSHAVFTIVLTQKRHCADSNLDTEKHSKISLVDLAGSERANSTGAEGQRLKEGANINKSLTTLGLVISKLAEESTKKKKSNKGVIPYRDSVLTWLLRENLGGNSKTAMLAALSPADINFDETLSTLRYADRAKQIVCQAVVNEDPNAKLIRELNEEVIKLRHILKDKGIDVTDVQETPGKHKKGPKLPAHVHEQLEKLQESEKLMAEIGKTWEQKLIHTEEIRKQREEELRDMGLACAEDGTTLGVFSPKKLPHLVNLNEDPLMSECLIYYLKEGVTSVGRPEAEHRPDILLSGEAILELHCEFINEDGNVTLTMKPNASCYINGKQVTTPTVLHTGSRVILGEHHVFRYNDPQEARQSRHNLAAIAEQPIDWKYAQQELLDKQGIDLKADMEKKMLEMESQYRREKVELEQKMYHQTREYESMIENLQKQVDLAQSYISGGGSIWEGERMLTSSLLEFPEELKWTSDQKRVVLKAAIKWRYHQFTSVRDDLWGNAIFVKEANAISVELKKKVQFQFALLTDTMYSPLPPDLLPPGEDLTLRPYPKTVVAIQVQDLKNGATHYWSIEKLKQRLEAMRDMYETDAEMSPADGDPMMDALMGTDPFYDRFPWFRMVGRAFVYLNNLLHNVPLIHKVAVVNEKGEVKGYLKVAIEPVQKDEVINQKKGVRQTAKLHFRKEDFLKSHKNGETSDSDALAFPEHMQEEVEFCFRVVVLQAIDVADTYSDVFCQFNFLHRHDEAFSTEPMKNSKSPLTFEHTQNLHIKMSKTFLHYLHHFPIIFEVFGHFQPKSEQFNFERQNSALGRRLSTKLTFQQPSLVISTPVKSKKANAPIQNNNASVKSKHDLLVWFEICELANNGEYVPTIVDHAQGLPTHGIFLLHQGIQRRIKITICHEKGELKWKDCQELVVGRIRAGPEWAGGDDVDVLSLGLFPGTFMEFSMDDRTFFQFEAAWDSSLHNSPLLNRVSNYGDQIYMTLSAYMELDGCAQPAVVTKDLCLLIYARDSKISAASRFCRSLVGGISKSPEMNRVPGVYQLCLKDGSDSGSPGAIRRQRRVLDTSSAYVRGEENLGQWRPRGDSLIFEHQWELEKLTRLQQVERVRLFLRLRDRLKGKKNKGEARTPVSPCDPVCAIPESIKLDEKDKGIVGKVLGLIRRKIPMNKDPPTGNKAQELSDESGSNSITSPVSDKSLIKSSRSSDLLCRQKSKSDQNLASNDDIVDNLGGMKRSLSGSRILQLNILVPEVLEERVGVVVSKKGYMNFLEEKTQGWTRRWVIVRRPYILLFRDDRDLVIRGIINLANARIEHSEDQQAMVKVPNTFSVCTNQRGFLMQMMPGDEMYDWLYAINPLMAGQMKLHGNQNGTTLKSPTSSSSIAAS
UniProt Q21049: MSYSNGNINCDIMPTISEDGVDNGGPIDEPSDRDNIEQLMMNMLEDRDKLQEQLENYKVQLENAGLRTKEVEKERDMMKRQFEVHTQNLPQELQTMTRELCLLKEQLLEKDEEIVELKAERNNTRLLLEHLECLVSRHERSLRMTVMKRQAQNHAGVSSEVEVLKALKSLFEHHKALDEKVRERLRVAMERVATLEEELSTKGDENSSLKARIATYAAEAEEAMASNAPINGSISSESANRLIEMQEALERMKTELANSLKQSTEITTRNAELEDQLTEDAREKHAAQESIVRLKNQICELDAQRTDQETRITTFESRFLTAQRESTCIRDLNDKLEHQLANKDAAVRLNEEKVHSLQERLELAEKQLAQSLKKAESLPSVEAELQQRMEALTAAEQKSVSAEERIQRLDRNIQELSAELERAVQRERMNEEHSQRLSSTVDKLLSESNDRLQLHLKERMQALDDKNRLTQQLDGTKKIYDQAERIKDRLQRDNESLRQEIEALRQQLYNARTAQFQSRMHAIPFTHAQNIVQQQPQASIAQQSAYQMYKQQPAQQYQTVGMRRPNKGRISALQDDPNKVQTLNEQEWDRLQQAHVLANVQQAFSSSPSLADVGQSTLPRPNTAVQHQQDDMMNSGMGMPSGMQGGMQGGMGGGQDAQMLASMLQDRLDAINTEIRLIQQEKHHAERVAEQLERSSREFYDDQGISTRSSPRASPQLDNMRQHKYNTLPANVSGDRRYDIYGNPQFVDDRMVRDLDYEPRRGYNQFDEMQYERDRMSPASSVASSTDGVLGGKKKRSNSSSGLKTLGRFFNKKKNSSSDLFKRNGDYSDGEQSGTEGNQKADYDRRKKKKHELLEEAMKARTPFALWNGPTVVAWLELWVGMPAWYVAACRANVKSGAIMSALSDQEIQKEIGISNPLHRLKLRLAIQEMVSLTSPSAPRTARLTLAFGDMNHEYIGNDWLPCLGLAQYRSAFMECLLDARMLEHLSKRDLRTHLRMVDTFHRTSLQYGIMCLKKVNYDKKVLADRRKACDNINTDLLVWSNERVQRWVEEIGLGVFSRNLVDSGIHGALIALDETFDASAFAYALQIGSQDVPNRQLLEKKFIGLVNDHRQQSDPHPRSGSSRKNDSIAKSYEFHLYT

Assays:
[1] = target: UNC-104::mRFP (C. elegans) (UniProt P23678); assay: co-IP
[2] = target: UNC-104::VC155 (C. elegans) (UniProt P23678); assay: split reporter

Row | binding [1] | binding [2] | Substance
1 | binds | – | SYD-2 (from UniProt Q21049 1-1139)
2 | – | binds | VN173::SYD-2 (from UniProt Q21049 1-1139)
